The supplement of paper PMC10849652
The list shows a part of the results.

Sequences of proteins named here, by UniProt entry; tags and fusion partners are left off. A change or cut given only in a name is not applied to a line headed by its entry.
UniProt Q9UPQ3: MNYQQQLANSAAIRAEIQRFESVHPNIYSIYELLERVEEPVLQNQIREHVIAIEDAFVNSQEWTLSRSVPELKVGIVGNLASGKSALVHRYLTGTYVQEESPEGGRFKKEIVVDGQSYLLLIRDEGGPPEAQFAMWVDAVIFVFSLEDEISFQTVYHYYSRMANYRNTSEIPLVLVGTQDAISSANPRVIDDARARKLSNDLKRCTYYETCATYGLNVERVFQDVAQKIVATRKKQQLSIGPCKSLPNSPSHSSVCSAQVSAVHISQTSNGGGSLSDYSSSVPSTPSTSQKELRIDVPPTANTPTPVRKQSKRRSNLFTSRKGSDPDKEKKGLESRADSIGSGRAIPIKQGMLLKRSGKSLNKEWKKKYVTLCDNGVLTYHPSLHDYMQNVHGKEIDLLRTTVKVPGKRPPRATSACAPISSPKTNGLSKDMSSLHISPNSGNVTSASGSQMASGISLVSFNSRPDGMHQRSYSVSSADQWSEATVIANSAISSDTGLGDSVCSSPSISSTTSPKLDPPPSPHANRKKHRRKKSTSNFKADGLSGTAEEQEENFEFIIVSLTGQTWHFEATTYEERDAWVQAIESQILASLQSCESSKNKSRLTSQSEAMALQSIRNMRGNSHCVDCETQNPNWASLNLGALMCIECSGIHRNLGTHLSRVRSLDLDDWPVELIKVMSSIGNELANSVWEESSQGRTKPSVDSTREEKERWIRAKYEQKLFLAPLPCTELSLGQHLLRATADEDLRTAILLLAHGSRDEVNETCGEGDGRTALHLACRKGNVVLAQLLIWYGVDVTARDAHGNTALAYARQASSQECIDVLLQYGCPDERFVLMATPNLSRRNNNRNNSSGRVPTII
UniProt Q9UKU0: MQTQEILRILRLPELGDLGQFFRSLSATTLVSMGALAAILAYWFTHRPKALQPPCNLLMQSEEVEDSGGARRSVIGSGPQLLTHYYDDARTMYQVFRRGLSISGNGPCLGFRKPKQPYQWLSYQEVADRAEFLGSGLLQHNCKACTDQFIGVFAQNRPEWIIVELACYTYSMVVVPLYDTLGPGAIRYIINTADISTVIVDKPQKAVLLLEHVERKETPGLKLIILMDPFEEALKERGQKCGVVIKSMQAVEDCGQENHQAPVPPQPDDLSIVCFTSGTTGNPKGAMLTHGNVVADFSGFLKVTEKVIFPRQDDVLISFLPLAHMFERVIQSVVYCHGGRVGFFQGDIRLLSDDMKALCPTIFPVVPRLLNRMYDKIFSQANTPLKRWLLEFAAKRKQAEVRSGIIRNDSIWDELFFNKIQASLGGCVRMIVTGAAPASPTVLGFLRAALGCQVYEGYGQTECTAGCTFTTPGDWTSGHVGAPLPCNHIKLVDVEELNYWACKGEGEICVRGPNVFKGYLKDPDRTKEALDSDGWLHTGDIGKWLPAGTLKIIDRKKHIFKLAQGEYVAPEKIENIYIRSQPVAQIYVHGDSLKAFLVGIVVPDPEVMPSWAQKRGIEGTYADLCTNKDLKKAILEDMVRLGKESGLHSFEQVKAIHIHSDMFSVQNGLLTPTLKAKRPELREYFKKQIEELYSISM
UniProt Q9Y3D8, whole entry, looked up: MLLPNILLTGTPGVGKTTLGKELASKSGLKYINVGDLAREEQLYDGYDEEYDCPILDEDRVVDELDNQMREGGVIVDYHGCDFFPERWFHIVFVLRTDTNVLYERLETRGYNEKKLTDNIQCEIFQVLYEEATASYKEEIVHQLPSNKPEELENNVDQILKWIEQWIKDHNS
UniProt Q9NR19, whole entry, looked up: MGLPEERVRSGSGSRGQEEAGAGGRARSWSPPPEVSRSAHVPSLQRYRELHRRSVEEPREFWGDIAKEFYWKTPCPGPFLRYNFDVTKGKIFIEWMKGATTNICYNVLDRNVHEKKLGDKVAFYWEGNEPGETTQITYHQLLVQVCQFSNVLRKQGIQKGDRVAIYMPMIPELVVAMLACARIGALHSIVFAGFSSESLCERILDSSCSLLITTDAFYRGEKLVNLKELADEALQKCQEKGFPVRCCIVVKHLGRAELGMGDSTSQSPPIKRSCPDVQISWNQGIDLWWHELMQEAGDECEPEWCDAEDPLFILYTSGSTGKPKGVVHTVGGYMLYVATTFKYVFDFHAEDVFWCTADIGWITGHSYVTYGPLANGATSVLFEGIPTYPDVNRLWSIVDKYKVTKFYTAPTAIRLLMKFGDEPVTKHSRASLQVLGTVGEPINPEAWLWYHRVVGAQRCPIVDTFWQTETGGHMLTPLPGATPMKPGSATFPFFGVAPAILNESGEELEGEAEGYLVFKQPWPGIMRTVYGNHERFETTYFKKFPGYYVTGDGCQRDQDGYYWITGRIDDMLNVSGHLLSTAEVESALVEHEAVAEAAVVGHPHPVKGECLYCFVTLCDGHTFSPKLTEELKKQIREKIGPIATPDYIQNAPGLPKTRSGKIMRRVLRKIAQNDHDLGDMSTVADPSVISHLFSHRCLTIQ
UniProt Q6UY14: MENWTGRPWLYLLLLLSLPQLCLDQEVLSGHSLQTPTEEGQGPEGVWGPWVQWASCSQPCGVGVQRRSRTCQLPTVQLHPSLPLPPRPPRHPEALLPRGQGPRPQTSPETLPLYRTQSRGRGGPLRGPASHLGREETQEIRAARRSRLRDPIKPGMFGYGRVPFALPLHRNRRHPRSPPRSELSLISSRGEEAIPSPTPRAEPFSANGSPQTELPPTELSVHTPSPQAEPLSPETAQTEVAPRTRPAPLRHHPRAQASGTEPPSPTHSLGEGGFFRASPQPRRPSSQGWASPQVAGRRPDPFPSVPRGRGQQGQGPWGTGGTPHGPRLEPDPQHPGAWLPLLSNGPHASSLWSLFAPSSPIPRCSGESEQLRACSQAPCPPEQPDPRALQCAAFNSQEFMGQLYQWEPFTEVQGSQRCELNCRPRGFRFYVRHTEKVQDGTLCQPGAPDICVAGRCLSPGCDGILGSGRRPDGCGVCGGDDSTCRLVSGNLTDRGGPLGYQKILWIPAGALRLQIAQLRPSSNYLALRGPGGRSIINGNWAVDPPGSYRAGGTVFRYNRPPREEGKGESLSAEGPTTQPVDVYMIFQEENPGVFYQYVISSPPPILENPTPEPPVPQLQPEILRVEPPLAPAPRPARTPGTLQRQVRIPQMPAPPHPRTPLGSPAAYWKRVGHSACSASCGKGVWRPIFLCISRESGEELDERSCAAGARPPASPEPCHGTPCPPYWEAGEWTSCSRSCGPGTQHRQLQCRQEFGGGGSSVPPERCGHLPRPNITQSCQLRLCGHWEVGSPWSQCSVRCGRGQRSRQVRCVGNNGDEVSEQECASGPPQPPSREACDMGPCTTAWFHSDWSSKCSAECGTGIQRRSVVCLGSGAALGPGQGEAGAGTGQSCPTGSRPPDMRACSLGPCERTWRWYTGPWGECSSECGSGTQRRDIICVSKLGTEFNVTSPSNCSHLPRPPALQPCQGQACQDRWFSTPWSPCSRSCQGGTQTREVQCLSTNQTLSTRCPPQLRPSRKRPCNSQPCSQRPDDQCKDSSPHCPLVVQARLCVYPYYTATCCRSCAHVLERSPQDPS
UniProt Q9ULC5: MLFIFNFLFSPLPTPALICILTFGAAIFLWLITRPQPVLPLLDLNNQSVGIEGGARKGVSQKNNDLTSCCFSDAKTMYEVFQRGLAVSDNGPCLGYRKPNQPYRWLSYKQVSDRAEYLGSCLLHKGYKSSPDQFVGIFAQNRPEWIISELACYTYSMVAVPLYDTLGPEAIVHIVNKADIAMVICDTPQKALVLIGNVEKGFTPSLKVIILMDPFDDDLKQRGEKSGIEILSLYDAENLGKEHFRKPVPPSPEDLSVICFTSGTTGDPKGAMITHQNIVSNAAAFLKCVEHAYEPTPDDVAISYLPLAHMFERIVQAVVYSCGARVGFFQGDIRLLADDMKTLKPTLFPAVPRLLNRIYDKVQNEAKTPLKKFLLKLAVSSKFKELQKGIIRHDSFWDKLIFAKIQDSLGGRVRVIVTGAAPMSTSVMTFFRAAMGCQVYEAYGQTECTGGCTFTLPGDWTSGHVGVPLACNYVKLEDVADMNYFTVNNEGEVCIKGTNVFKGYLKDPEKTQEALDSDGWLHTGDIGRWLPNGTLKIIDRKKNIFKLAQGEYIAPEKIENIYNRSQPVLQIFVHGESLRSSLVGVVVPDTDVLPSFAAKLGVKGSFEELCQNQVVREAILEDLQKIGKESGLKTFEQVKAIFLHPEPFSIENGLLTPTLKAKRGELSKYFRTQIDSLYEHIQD
UniProt P55008: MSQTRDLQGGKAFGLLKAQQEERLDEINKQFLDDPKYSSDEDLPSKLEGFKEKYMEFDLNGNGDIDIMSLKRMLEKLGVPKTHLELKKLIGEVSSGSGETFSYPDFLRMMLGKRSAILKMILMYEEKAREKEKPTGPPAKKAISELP
UniProt Q3MIX3: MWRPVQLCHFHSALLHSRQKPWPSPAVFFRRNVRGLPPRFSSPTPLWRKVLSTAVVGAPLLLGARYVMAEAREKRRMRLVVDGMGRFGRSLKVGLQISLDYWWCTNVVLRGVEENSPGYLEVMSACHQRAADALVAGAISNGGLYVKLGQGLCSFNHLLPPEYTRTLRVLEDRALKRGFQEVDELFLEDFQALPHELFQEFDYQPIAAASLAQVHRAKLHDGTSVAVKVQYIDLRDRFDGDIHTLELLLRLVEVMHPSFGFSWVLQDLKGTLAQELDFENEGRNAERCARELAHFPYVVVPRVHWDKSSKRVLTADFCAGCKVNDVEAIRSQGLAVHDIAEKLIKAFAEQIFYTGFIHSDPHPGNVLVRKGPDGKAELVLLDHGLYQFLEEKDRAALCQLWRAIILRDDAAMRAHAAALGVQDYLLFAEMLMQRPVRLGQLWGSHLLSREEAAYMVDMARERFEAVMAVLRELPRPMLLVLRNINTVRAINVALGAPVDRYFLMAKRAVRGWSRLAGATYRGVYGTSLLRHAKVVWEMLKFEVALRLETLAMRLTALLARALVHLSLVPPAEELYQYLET
UniProt Q53H80, whole entry, looked up: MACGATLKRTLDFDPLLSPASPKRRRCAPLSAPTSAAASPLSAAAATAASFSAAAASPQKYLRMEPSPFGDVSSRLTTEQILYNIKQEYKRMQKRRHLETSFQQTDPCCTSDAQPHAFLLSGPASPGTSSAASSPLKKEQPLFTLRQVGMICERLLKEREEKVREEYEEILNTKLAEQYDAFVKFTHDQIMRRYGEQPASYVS
UniProt Q6RW13: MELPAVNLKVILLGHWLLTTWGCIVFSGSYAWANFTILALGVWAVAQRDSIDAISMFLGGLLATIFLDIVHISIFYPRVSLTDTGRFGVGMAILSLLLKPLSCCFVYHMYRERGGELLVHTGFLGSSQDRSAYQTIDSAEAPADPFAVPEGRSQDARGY
UniProt Q86V24: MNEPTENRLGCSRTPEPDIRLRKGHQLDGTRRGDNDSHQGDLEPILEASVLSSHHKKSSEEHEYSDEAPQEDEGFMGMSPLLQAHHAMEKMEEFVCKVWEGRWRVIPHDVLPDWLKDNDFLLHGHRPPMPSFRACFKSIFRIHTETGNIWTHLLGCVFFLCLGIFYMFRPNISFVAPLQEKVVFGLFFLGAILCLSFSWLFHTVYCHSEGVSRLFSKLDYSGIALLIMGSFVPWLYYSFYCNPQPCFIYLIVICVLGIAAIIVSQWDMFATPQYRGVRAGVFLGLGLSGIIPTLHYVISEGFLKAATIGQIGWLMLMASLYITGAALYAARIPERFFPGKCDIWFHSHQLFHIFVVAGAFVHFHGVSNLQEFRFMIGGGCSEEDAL
UniProt Q8N302: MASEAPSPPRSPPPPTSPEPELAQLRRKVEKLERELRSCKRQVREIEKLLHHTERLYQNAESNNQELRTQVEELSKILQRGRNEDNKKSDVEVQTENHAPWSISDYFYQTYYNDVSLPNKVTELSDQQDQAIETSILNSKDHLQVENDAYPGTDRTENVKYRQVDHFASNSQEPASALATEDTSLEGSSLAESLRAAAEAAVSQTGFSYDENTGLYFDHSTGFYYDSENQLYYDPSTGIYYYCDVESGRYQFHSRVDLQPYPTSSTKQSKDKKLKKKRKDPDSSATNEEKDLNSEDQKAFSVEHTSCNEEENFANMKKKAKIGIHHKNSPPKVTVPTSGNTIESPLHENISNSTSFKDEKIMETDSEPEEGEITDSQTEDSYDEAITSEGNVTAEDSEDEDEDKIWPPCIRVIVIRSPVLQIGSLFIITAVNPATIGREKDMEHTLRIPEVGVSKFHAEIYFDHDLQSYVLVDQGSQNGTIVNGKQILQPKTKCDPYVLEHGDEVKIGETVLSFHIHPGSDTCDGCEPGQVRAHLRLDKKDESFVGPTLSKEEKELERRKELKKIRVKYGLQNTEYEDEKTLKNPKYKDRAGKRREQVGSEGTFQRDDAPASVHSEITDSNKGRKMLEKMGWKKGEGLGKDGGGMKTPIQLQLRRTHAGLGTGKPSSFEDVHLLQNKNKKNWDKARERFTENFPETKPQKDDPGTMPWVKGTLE

Key:
Test in all cases: log2 fold change, soluble protein after heating vs DMSO (PISA); higher = thermal stabilisation; K562 lysate, 10 uM; active = over 0.2 and 3.5 SD of the protein, either way, in both replicates (recomputed)
lapatinib = compound: CS(=O)(=O)CCNCc1ccc(-c2ccc3ncnc(Nc4ccc(OCc5cccc(F)c5)c(Cl)c4)c3c2)o1 [lapatinib]
How it was run: (§1)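 K562 pellets were dounce-homogenised in PBS pH 7.4 with 1 mM MgCl2, and the crude extract at 1 mg/mL protein was treated with 10 μM compound for 30 min. Aliquots were heated for 3 min across 48°C-58°C, pooled, and brought to 0.5% NP-40 at 4°C; soluble protein was the supernatant after 21,000xg for 90 min. Soluble protein was quantified by TMTpro 16plex LC-MS/MS with channel sums equalised, and reported as log2 fold change in thermal stability against DMSO controls, with values from duplicates.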

pictilisib = compound: CS(=O)(=O)N1CCN(Cc2cc3nc(-c4cccc5[nH]ncc45)nc(N4CCOCC4)c3s2)CC1 [pictilisib]
How it was run: as §1

crizotinib = compound: C[C@@H](Oc1cc(-c2cnn(C3CCNCC3)c2)cnc1N)c1c(Cl)ccc(F)c1Cl [crizotinib]
How it was run: as §1

[1] = compound: C[C@H](C1=CC=C(C=C1)C(=O)NC2=C3C=CNC3=NC=C2)N
How it was run: as §1

gandotinib = compound: Cc1cc(Nc2cc(CN3CCOCC3)c3nc(C)c(Cc4ccc(Cl)cc4F)n3n2)n[nH]1 [gandotinib]
How it was run: as §1

tozasertib = compound: Cc1cc(Nc2cc(N3CCN(C)CC3)nc(Sc3ccc(NC(=O)C4CC4)cc3)n2)n[nH]1 [tozasertib]
How it was run: as §1

doramapimod = compound: Cc1ccc(-n2nc(C(C)(C)C)cc2NC(=O)Nc2ccc(OCCN3CCOCC3)c3ccccc23)cc1 [doramapimod]
How it was run: as §1

bafetinib = compound: Cc1ccc(NC(=O)c2ccc(CN3CC[C@H](N(C)C)C3)c(C(F)(F)F)c2)cc1Nc1nccc(-c2cncnc2)n1 [bafetinib]
How it was run: as §1

[2] = compound: Cc1cccc(CC(=O)N2CCc3c2ccc(-c2cn(C)c4ncnc(N)c24)c3F)n1
How it was run: as §1

nilotinib = compound: Cc1cn(-c2cc(NC(=O)c3ccc(C)c(Nc4nccc(-c5cccnc5)n4)c3)cc(C(F)(F)F)c2)cn1 [nilotinib]
How it was run: as §1

[3] = compound: Cc1nc(Nc2n[nH]c3c2CN(C(=O)N[C@H](CN(C)C)c2ccccc2)C3(C)C)c2sccc2n1
How it was run: as §1

[4] = compound: Cc1ncc(-c2ccnc(Nc3ccc(S(C)(=O)=O)cc3)n2)n1C(C)C
How it was run: as §1

quisinostat = compound: Cn1cc(CNCC2CCN(c3ncc(C(=O)NO)cn3)CC2)c2ccccc21 [quisinostat]
How it was run: as §1

tipifarnib = compound: Cn1cncc1[C@@](N)(c1ccc(Cl)cc1)c1ccc2c(c1)c(-c1cccc(Cl)c1)cc(=O)n2C [tipifarnib]
How it was run: as §1

[5] = compound: NC(=O)Nc1cc(-c2cccc(F)c2)sc1C(=O)N[C@H]1CCCNC1
How it was run: as §1

[6] = compound: NC(=O)c1cnc(N[C@@H]2CCCC[C@@H]2N)nc1Nc1cccc(-n2nccn2)c1
How it was run: as §1

[7] = compound: NC1(c2ccc(-c3nc4ccn5c(=O)[nH]nc5c4cc3-c3ccccc3)cc2)CCC1
How it was run: as §1

duvelisib = compound: C[C@H](Nc1ncnc2nc[nH]c12)c1cc2cccc(Cl)c2c(=O)n1-c1ccccc1 [duvelisib]
How it was run: as §1

dasatinib = compound: Cc1nc(Nc2ncc(C(=O)Nc3c(C)cccc3Cl)s2)cc(N2CCN(CCO)CC2)n1 [dasatinib]
How it was run: as §1

[8] = compound: Cn1cc(-c2ccc3c(c2)CCN3C(=O)Cc2cccc(C(F)(F)F)c2)c2c(N)ncnc21
How it was run: as §1

Measured: log2 fold change

ACTN2, A0A494C031
inactive: lapatinib -0.144 | pictilisib -0.16 | crizotinib -0.221 | [1] -0.064 | gandotinib 0.066 | tozasertib -0.067 | doramapimod 0.149 | bafetinib -0.067 | [2] 0.439 | nilotinib -0.037 | [3] 0.155 | [4] -0.078 | quisinostat -0.378 | tipifarnib -0.085 | [5] 0 | [6] 0.164 | [7] -0.156

AKAP17A (UniProt Q02040)
inactive: lapatinib -0.167 | crizotinib -0.004 | duvelisib -0.03 | doramapimod 0.026 | dasatinib -0.096 | [8] 0.079 | quisinostat 0.039 | [5] -0.098 | [6] 0 | [7] -0.312

AGAP1 (UniProt Q9UPQ3)
inactive: lapatinib 0.005 | pictilisib -0.002 | crizotinib -0.034 | [1] -0.027 | duvelisib -0.109 | gandotinib 0.013 | doramapimod 0.015 | bafetinib -0.016 | [2] 0.076 | nilotinib 0.019 | [3] 0.025 | dasatinib -0.005 | [4] 0.007 | [8] 0.022 | quisinostat -0.045 | tipifarnib -0.039 | [5] 0.066 | [6] -0.018 | [7] -0.041

ACSL6 isoform 1 (UniProt Q9UKU0)
inactive: lapatinib -0.027 | pictilisib 0.055 | [1] 0.038 | gandotinib -0.117 | bafetinib -0.151 | [2] 0.056 | [6] 0.031 | [7] 0.043

ADK, A0A5F9ZH76
inactive: lapatinib -0.013 | pictilisib -0.074 | bafetinib 0.147 | nilotinib -0.267 | [3] 0.089 | [4] 0.065 | tipifarnib 0.487 | [6] -0.083

AK6 (UniProt Q9Y3D8)
inactive: lapatinib -0.015 | pictilisib -0.063 | crizotinib -0.021 | [1] 0.047 | duvelisib -0.004 | gandotinib -0.162 | tozasertib 0.053 | doramapimod 0.038 | bafetinib 0.025 | [2] -0.054 | nilotinib -0.013 | [3] 0.032 | dasatinib -0.028 | [4] -0.016 | [8] 0.04 | quisinostat 0.019 | tipifarnib -0.002 | [5] 0.072 | [6] -0.038 | [7] 0.1

ACSS2 isoform 2 (UniProt Q9NR19)
inactive: lapatinib -0.002 | pictilisib -0.016 | crizotinib -0.012 | [1] -0.007 | duvelisib -0.009 | gandotinib -0.06 | tozasertib 0.06 | doramapimod 0.043 | bafetinib -0.024 | [2] 0.011 | nilotinib -0.012 | [3] 0.02 | dasatinib -0.025 | [4] -0.027 | [8] 0.023 | quisinostat -0.013 | tipifarnib 0.018 | [5] -0.013 | [6] 0.013 | [7] 0.028

ADAMTSL4 isoform 3 (UniProt Q6UY14)
inactive: lapatinib 0.005 | pictilisib 0.023 | crizotinib -0.052 | [1] -0.037 | duvelisib 0.1 | gandotinib 0.066 | doramapimod 0.157 | bafetinib 0.015 | [2] 0.092 | nilotinib 0.018 | [3] -0.064 | dasatinib -0.041 | [4] 0.015 | [8] -0.085 | quisinostat -0.033 | tipifarnib -0.036 | [5] 0.042 | [6] -0.055 | [7] -0.021

Two entries picked at random from those above:
ADK, A0A5F9ZH76
inactive: lapatinib -0.013 | pictilisib -0.074 | bafetinib 0.147 | nilotinib -0.267 | [3] 0.089 | [4] 0.065 | tipifarnib 0.487 | [6] -0.083

ACSL6 isoform 1 (UniProt Q9UKU0)
inactive: lapatinib -0.027 | pictilisib 0.055 | [1] 0.038 | gandotinib -0.117 | bafetinib -0.151 | [2] 0.056 | [6] 0.031 | [7] 0.043

The list goes on:

ACSL5 isoform 3 (UniProt Q9ULC5)
inactive: lapatinib -0.033 | pictilisib 0.011 | crizotinib -0.131 | [1] 0.104 | duvelisib 0 | gandotinib -0.09 | doramapimod 0.018 | bafetinib -0.056 | [2] -0.139 | nilotinib -0.023 | [3] 0.029 | dasatinib -0.037 | [4] 0.045 | [8] -0.047 | quisinostat 0.003 | tipifarnib -0.043 | [5] 0.022 | [6] -0.036 | [7] 0.008

AIF1 (UniProt P55008)
inactive: lapatinib -0.037 | crizotinib -0.046 | [1] 0.171 | duvelisib 0.015 | gandotinib -0.222 | doramapimod 0.009 | [2] -0.148 | nilotinib 0.03 | [3] -0.045 | dasatinib -0.017 | [4] 0.018 | [8] 0.026 | quisinostat -0.029 | tipifarnib 0.101 | [5] 0.07 | [6] -0.031 | [7] 0.174

ADCK5 (UniProt Q3MIX3)
inactive: lapatinib 0.023 | crizotinib 0.024 | duvelisib 0.002 | tozasertib -0.035 | doramapimod 0.031 | nilotinib -0.032 | [3] 0.019 | dasatinib -0.153 | [4] 0.105 | [8] -0.042 | quisinostat 0.018 | tipifarnib 0.11 | [5] -0.014 | [6] -0.033

AKIRIN2 (UniProt Q53H80)
inactive: lapatinib -0.029 | crizotinib 0.006 | [1] 0.037 | duvelisib -0.073 | gandotinib -0.068 | tozasertib -0.095 | doramapimod -0.017 | [2] -0.036 | nilotinib 0.011 | [3] -0.061 | dasatinib 0.062 | [4] -0.084 | [8] -0.09 | quisinostat 0.011 | tipifarnib 0.044 | [5] -0.025 | [6] 0.066 | [7] 0.156

AGTRAP isoform 2 (UniProt Q6RW13)
inactive: lapatinib 0.003 | pictilisib 0.088 | [1] -0.138 | gandotinib 0.146 | bafetinib -0.008 | [2] 0.156 | [6] -0.043

ADIPOR2 (UniProt Q86V24)
inactive: lapatinib -0.16 | pictilisib -0.008 | crizotinib -0.1 | duvelisib -0.08 | tozasertib -0.105 | doramapimod 0.044 | bafetinib 0.089 | nilotinib 0.118 | [3] -0.011 | dasatinib 0.038 | [4] 0.05 | [8] 0.013 | quisinostat -0.011 | tipifarnib 0.037 | [5] 0.066 | [6] 0 | [7] -0.001

AGGF1 (UniProt Q8N302)
inactive: lapatinib -0.046 | pictilisib -0.133 | crizotinib -0.028 | [1] -0.193 | gandotinib 0.139 | tozasertib 0.04 | doramapimod -0.011 | bafetinib 0.047 | [2] 0.268 | nilotinib 0.02 | [3] 0.055 | [4] 0.087 | quisinostat -0.041 | tipifarnib -0.06 | [5] -0.007 | [6] 0.075 | [7] 0.024
